Assay results taken from the supplement of paper PMC8728848.
The other results are listed elsewhere or left out.

Columns and labels:
Assay in all cases: glycan array binding signal (z-score within array); higher = stronger binding
Details in all cases: glycan notation: IUPAC condensed, linker removed
Fuc(a1-2)Gal = target: Fuc(a1-2)Gal
Summary of the method: (§1)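 From the Consortium for Functional Glycomics database, 3228 arrays were curated, keeping only those whose protein sequence was available. Binding is given as a within-array Z-score averaged across arrays sharing a protein sequence and across linkers. Negative Z-scores can be read as non-binding.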

Fuc(a1-2)Gal(b1-3)GalNAc = target: Fuc(a1-2)Gal(b1-3)GalNAc
Summary of the method: as §1

[1] = target: Fuc(a1-2)Gal(b1-3)GalNAc(a1-3)[Fuc(a1-2)]Gal(b1-4)Glc
Summary of the method: as §1

[2] = target: Fuc(a1-2)Gal(b1-3)GalNAc(a1-3)[Fuc(a1-2)]Gal(b1-4)GlcNAc
Summary of the method: as §1

[3] = target: Fuc(a1-2)Gal(b1-3)GalNAc(b1-3)Gal
Summary of the method: as §1

[4] = target: Fuc(a1-2)Gal(b1-3)GalNAc(b1-3)Gal(a1-4)Gal(b1-4)Glc
Summary of the method: as §1

[5] = target: Fuc(a1-2)Gal(b1-3)GalNAc(b1-4)[Neu5Ac(a2-3)]Gal(b1-4)Glc
Summary of the method: as §1

Fuc(a1-2)Gal(b1-3)GlcNAc = target: Fuc(a1-2)Gal(b1-3)GlcNAc
Summary of the method: as §1

[6] = target: Fuc(a1-2)Gal(b1-3)GlcNAc(b1-2)Man(a1-3)[Fuc(a1-2)Gal(b1-3)GlcNAc(b1-2)Man(a1-6)]Man(b1-4)GlcNAc(b1-4)GlcNAc
Summary of the method: as §1

[7] = target: Fuc(a1-2)Gal(b1-3)GlcNAc(b1-2)Man(a1-3)[Fuc(a1-2)Gal(b1-3)GlcNAc(b1-2)Man(a1-6)]Man(b1-4)GlcNAc(b1-4)[Fuc(a1-6)]GlcNAc
Summary of the method: as §1

[8] = target: Fuc(a1-2)Gal(b1-3)GlcNAc(b1-3)Gal(b1-4)Glc
Summary of the method: as §1

[9] = target: Fuc(a1-2)Gal(b1-3)GlcNAc(b1-3)GalNAc
Summary of the method: as §1

[10] = target: Fuc(a1-2)Gal(b1-3)GlcNAc(b1-3)[Fuc(a1-2)Gal(b1-3)GlcNAc(b1-6)]GalNAc
Summary of the method: as §1

[11] = target: Fuc(a1-2)Gal(b1-3)GlcNAc(b1-3)[Gal(b1-4)GlcNAc(b1-6)]Gal(b1-4)Glc
Summary of the method: as §1

[12] = target: Fuc(a1-2)Gal(b1-3)GlcNAc(b1-3)[Neu5Ac(a2-6)Gal(b1-4)GlcNAc(b1-6)]Gal(b1-4)Glc
Summary of the method: as §1

[13] = target: Fuc(a1-2)Gal(b1-3)GlcNAc6S
Summary of the method: as §1

[14] = target: Fuc(a1-2)Gal(b1-3)[Fuc(a1-4)]GlcNAc
Summary of the method: as §1

[15] = target: Fuc(a1-2)Gal(b1-3)[Fuc(a1-4)]GlcNAc(b1-2)Man(a1-3)[Fuc(a1-2)Gal(b1-3)[Fuc(a1-4)]GlcNAc(b1-2)Man(a1-3)]Man(b1-4)GlcNAc(b1-4)GlcNAc
Summary of the method: as §1

[16] = target: Fuc(a1-2)Gal(b1-3)[Fuc(a1-4)]GlcNAc(b1-2)Man(a1-3)[Fuc(a1-2)Gal(b1-3)[Fuc(a1-4)]GlcNAc(b1-2)Man(a1-6)]Man(b1-4)GlcNAc(b1-4)[Fuc(a1-6)]GlcNAc(b1-4)[Fuc(a1-6)]GlcNAc
Summary of the method: as §1

[17] = target: Fuc(a1-2)Gal(b1-3)[Fuc(a1-4)]GlcNAc(b1-3)[Fuc(a1-3)[Gal(b1-4)]GlcNAc(b1-6)]Gal(b1-4)Glc
Summary of the method: as §1

[18] = target: Fuc(a1-2)Gal(b1-3)[Fuc(a1-4)]GlcNAc(b1-3)[Gal(b1-4)GlcNAc(b1-6)]Gal(b1-4)Glc
Summary of the method: as §1

[19] = target: Fuc(a1-2)Gal(b1-4)Fuc(a1-3)]GlcNAc(b1-2)Man(a1-3)[Fuc(a1-2)Gal(b1-4)[Fuc(a1-3)]GlcNAc(b1-2)Man(a1-6)]Man(b1-4)GlcNAc(b1-4)GlcNAc
Summary of the method: as §1

Fuc(a1-2)Gal(b1-4)Glc = target: Fuc(a1-2)Gal(b1-4)Glc
Summary of the method: as §1

Fuc(a1-2)Gal(b1-4)Glc6S = target: Fuc(a1-2)Gal(b1-4)Glc6S
Summary of the method: as §1

Fuc(a1-2)Gal(b1-4)GlcNAc = target: Fuc(a1-2)Gal(b1-4)GlcNAc
Summary of the method: as §1

[20] = target: Fuc(a1-2)Gal(b1-4)GlcNAc(b1-2)Man
Summary of the method: as §1

[21] = target: Fuc(a1-2)Gal(b1-4)GlcNAc(b1-2)Man(a1-3)[Fuc(a1-2)Gal(b1-4)GlcNAc(b1-2)Man(a1-6)]Man(b1-4)GlcNAc(b1-4)GlcNAc
Summary of the method: as §1

[22] = target: Fuc(a1-2)Gal(b1-4)GlcNAc(b1-2)Man(a1-3)[Fuc(a1-2)Gal(b1-4)GlcNAc(b1-2)Man(a1-6)]Man(b1-4)GlcNAc(b1-4)[Fuc(a1-6)]GlcNAc
Summary of the method: as §1

[23] = target: Fuc(a1-2)Gal(b1-4)GlcNAc(b1-2)[Fuc(a1-2)Gal(b1-4)GlcNAc(b1-4)]Man(a1-3)[Fuc(a1-2)Gal(b1-4)GlcNAc(b1-2)Man(a1-6)]Man(b1-4)GlcNAc(b1-4)GlcNAc
Summary of the method: as §1

[24] = target: Fuc(a1-2)Gal(b1-4)GlcNAc(b1-3)Gal(b1-4)GlcNAc
Summary of the method: as §1

B1: SUN4 (Saccharomyces cerevisiae), P53616 (protein)
chain: MGSSHHHHHHSSGLVPRGSHNGSIYGDLADFSGPYEKFEDGTIPCGQFPSGQGVIPISWLDEGGWSGVENTDTSTGGSCKEGSYCSYACQPGMSKTQWPSDQPSDGRSIGGLLCKDGYLYRSNTDTDYLCEWGVDAAYVVSELSNDVAICRTDYPGTENMVIPTYVQAGDSLPLTVVDQDTYYTWQGLKTSAQYYVNNAGISVEDACVWGSSSSGVGNWAPLNFGAGSSDGVAYLSLIPNPNNGNALNFNVKIVAADDSSTVNGECIYENGSFSGGSDGCTVSVTAGKAKFVLYN
glycan array binding signal (z-score) (Fuc(a1-2)Gal): -0.133 | glycan array binding signal (z-score) (Fuc(a1-2)Gal(b1-3)GalNAc): 0.328 | glycan array binding signal (z-score) [1]: -0.696 | glycan array binding signal (z-score) [2]: -0.687 | glycan array binding signal (z-score) [3]: -0.399 | glycan array binding signal (z-score) [4]: 0.954 | glycan array binding signal (z-score) [5]: -0.421 | glycan array binding signal (z-score) (Fuc(a1-2)Gal(b1-3)GlcNAc): -0.873 | glycan array binding signal (z-score) [6]: 0.897 | glycan array binding signal (z-score) [7]: -0.414 | glycan array binding signal (z-score) [8]: -0.045 | glycan array binding signal (z-score) [9]: -0.524 | glycan array binding signal (z-score) [10]: 0.083 | glycan array binding signal (z-score) [11]: -1.29 | glycan array binding signal (z-score) [12]: 0.004 | glycan array binding signal (z-score) [13]: 0.583 | glycan array binding signal (z-score) [14]: -0.752 | glycan array binding signal (z-score) [15]: -0.207 | glycan array binding signal (z-score) [16]: -0.09 | glycan array binding signal (z-score) [17]: -0.204 | glycan array binding signal (z-score) [18]: 0.297 | glycan array binding signal (z-score) [19]: 0.486 | glycan array binding signal (z-score) (Fuc(a1-2)Gal(b1-4)Glc): 0.275 | glycan array binding signal (z-score) (Fuc(a1-2)Gal(b1-4)Glc6S): -0.667 | glycan array binding signal (z-score) (Fuc(a1-2)Gal(b1-4)GlcNAc): -0.35 | glycan array binding signal (z-score) [20]: 0.324 | glycan array binding signal (z-score) [21]: -1.06 | glycan array binding signal (z-score) [22]: 1.62 | glycan array binding signal (z-score) [23]: 1.03 | glycan array binding signal (z-score) [24]: -1.49
